In patent US7375243B2, “Method for preparation of amino acid chelate” (MD Bioalpha Co., Ltd., priority 2002, dated 2008):

Experiment: Test of properties (taste and appearance) of beverage with chelate added
Conditions: chelate added to MIEROFIBER at 1% by weight; aggregate of ten specialists, each 1-5

Substance: Seaweed Calcium-Glutamic Acid Chelate [EXAMPLE 1]
- Appearance: Clearness (aggregate value): 47
- Appearance: Color (aggregate value): 48
- Overall evaluation (aggregate value): 47
- Taste: Glutamate taste (aggregate value): 12
- Taste: Sour taste (aggregate value): 11
